{
  "sequences": {"note": "Protein sequences, listed by entry. Tags and fused reporters are not part of them. Lines headed by an entry give the natural chain unless they say otherwise; changes in a name come on top.", "UniProt Q7Z2W7": "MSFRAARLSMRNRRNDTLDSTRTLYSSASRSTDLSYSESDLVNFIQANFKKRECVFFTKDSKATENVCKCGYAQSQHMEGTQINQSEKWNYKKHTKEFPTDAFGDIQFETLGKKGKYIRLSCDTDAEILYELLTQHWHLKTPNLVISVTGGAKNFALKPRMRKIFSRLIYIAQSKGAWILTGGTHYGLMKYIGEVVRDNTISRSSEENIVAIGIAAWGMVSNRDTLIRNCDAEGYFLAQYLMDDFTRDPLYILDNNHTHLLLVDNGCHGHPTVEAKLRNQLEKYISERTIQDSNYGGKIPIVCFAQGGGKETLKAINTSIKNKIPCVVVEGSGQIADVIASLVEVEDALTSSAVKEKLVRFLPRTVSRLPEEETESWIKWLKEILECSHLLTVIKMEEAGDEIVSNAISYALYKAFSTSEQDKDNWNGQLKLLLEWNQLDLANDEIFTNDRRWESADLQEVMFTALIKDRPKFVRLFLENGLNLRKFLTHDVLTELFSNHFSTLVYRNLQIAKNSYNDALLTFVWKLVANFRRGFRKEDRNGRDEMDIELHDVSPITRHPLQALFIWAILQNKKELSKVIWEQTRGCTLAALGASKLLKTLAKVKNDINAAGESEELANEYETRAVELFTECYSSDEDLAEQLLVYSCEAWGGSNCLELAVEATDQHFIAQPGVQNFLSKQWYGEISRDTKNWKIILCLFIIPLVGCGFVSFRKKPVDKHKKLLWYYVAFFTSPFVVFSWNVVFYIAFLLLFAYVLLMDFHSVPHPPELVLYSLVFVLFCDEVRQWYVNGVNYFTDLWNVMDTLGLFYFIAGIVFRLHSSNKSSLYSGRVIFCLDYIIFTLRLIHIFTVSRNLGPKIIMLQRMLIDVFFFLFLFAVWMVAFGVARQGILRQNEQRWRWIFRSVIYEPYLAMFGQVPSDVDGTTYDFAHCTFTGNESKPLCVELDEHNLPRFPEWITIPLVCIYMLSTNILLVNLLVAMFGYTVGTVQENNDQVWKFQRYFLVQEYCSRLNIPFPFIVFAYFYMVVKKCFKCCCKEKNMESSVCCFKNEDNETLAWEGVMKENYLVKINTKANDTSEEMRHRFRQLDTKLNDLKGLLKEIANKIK", "UniProt P10275": "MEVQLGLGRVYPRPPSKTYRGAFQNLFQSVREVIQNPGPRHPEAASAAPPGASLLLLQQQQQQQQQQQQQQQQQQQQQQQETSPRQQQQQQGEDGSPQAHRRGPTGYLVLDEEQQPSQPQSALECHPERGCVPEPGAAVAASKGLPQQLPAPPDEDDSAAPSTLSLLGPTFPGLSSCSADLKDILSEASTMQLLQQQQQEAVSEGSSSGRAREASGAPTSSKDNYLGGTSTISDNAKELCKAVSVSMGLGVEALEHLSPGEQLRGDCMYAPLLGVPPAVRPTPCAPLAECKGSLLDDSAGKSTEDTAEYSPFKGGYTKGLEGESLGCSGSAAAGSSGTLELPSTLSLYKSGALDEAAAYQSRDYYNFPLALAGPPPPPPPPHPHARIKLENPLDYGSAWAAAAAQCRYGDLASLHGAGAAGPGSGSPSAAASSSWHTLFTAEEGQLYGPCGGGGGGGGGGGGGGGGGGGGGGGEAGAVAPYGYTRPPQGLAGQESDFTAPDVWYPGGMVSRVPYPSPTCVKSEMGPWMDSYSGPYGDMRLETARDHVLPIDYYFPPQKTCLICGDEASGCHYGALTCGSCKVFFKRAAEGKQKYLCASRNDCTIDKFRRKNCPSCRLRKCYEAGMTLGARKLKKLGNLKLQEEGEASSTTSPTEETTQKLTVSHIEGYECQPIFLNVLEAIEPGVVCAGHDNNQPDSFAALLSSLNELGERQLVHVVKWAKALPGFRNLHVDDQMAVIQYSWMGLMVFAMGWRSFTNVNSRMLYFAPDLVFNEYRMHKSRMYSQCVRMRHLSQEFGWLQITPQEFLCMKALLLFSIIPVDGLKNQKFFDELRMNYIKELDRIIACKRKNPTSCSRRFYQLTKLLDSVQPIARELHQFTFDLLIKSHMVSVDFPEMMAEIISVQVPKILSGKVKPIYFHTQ"},
  "source": "paper PMC6733924",
  "target": "full-length his-tagged TRPM8 (UniProt Q7Z2W7)",
  "test": "co-IP; PC3-TRPM8 cells transfected with peGFP-AR (wild-type, 23 or Q640X); lysate (1% Triton X-100, 1% sodium deoxycholate, 150 mM NaCl) incubated overnight at 4 °C with His-tag beads in IP buffer (20 mM NaH2PO4, 150 mM NaCl, pH 8); AR detected with anti-GFP; cells treated with vehicle or 1, 10, 100 nM testosterone for 20 min (wild type: decrease by 58.2%-68.4% at 10-100 nM)",
  "note": "No constants are given. Whether binding was seen depends on the method and setting. Binding seen in cells or lysates may run through a third protein. Binding calls can cover weak binding; strength is not graded here.",
  "data": [
    {"substance": "cytosolic AR mutant AR23-GFP (from UniProt P10275)", "values": [
      {"measurement": "binding", "value": "binds"}
    ]}
  ]
}
